These are yes or no findings as the source states them, for the method shown. In cells and extracts the contact can be indirect. Some entries that bind do so weakly or less than the wild type. Sequences can lack the tags named with a protein.
Target: T1, FLAG-SAE2 expressed in U2OS cells (human) (UniProt Q9UBT2)
T1 sequence: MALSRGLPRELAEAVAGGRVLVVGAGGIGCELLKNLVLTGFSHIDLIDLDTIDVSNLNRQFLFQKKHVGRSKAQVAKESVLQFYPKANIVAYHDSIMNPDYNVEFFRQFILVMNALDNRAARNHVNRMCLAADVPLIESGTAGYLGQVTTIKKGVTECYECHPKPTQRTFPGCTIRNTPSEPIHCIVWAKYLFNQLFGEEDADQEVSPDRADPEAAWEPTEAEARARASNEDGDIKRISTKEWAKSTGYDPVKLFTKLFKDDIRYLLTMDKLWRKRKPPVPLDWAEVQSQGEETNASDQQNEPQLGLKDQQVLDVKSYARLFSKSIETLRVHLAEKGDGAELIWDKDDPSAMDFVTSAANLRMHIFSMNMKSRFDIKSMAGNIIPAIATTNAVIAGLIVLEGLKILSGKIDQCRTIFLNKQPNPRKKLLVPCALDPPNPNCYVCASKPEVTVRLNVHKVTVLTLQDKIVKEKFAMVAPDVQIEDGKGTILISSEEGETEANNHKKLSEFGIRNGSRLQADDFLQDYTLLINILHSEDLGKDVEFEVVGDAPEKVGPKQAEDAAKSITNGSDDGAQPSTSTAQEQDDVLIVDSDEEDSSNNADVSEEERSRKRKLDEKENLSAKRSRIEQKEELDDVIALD
Assay: co-IP

By UniProt entry, the sequences of proteins in these tests, tags left out.
UniProt Q9UBN7: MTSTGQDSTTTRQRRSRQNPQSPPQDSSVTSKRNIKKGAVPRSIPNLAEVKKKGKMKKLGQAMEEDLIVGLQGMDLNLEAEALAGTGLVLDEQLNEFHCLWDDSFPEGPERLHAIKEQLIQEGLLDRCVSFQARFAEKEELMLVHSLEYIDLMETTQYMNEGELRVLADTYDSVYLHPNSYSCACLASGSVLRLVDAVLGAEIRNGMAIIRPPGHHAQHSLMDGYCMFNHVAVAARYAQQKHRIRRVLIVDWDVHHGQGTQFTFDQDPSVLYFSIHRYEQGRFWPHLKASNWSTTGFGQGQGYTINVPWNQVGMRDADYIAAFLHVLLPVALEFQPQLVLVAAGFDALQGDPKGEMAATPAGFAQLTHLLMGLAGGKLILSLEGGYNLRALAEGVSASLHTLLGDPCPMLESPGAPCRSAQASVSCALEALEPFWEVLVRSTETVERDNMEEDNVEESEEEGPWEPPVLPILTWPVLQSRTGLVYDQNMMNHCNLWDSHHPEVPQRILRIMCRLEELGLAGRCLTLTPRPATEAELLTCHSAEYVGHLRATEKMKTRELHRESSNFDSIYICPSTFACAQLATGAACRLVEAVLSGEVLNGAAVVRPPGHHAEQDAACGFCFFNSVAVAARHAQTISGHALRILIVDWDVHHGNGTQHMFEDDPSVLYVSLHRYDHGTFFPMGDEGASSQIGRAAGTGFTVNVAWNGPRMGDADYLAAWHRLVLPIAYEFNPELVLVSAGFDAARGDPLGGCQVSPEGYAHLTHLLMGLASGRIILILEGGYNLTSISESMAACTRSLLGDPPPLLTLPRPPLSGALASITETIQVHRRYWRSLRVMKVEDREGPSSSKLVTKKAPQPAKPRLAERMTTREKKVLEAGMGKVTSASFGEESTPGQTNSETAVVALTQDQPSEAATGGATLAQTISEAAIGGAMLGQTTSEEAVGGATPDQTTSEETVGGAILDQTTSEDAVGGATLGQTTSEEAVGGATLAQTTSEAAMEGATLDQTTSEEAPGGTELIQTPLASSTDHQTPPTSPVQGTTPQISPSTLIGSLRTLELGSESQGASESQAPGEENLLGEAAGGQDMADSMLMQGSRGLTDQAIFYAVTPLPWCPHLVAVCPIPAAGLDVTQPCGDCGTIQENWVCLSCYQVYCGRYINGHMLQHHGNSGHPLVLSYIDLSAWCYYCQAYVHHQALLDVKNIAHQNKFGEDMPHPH

binding: binds
Substance: HDAC6, endogenous (from UniProt Q9UBN7 1-1215) (enzyme)

Source: article doi:10.1101/2022.03.18.484840
